Experimental data taken from PubChem BioAssay AID218 (DTP/NCI, 2004).
The list shows only some results of the screen, not a fair sample: it gathers tests that were run many times, whatever their T/C, doses with no T/C, and many T/C values between a quarter and a half above the control. Further doses and runs are listed elsewhere. T/C: endpoint of the treated group in % of that of the vehicle group. Schedule codes are those of the source, taken here to give the interval after Q, in days (D) or hours (H), and the number of doses after X. Some T/C values are followed by the survivors on the day toxicity was checked, most often the fifth; without a count, all were alive then. Some entries were tested several times; the results are listed from low to high. Marks such as (2×) count equal records among those shown. Some entries give survivors of the animals treated and no T/C: the source holds a T/C of zero for them, seemingly a mark for toxic or unscored doses. Counts of survivors are from the toxicity check (mostly the fifth day) where no day follows; animals may have died later. Starred links: 1 amine or outer side, 2 acyl side, 3 side chain; linkers in the order of their positions; H or OH if unused. Positions of bridges follow the written chain, without caps; N, C: chain ends. Non-standard residues stand in square brackets, D forms with d. Residues, ends and D or L forms follow the SMILES beside them. Chains are numbered I, II in the order given. Actinocin(9to1) = Cc1c2oc3c(C)ccc(C(=O)[*:1])c3nc-2c(C(=O)[*:2])c(N)c1=O; aThr = C[C@H](O)[C@H](N)C(=O)O; NMeV = CN[C@H](C(=O)O)C(C)C; Ac5c = NC1(C(=O)O)CCCC1; Sar = CNCC(=O)O

Tested on: C57BL/6 mice, Adenocarcinoma 755 sc, tumor weight T/C
Experiment: NCI In Vivo Anticancer Drug Screen. Data for tumor model Adenocarcinoma 755 (subcutaneous) in C57BL/6 mice
Conditions: T/C endpoint: mean tumor weight, higher T/C = larger tumour; for T/C: evaluated on day 12
Description: The antitumor activity of compounds was measured in mice bearing transplantable tumors. Survival or tumor size were measured and the results are expressed as the measurement made in the treated group (T) divided by the measurement made in the vehicle treated control group (C). The tumor model used in this assay is Adenocarcinoma 755 (subcutaneous) in C57BL/6 mice

[1] = dose: 40.0 mg/kg/injection, schedule: Q01DX011 (ip), vehicle: saline
[2] = dose: 75.0 mg/kg/injection, schedule: Q01DX011 (ip), vehicle: saline
[3] = dose: 100.0 mg/kg/injection, schedule: Q01DX011 (ip), vehicle: saline
[4] = dose: 150.0 mg/kg/injection, schedule: Q01DX011 (ip), vehicle: carboxymethylcellulose (CMC)
[5] = dose: 50.0 mg/kg/injection, schedule: Q01DX011 (ip), vehicle: carboxymethylcellulose (CMC)
[6] = dose: 200.0 mg/kg/injection, schedule: Q01DX011 (ip), vehicle: saline
[7] = dose: 80.0 mg/kg/injection, schedule: Q01DX011 (oral), vehicle: alkali diluted with saline
[8] = dose: 20.0 mg/kg/injection, schedule: Q01DX011 (ip), vehicle: saline

With `Cc1c2oc3c(C)ccc(C(=O)N[C@@H]4C(=O)N[C@H](C(C)C)C(=O)N5CCC[C@H]5C(=O)N(C)CC(=O)N(C)[C@@H](C(C)C)C(=O)O[C@H]4C)c3nc-2c(C(=O)N[C@@H]2C(=O)N[C@H](C(C)C)C(=O)N3CCC[C@H]3C(=O)N(C)CC(=O)N(C)[C@@H](C(C)C)C(=O)O[C@H]2C)c(N)c1=O` (I: [aThr][dV]P[Sar][NMeV] / II: [aThr][dV]P[Sar][NMeV]; ester I:1-I:C, II:1-II:C; linker I:N-II:N via Actinocin(9to1)) the survivor count (dose: 0.05 mg/kg/injection, schedule: Q01DX011 (ip), vehicle: saline) was 6 of 10.

In the case of `CN(C)C1C(=O)C(C(N)=O)=C(O)C2(O)C(=O)C3=C(O)c4c(O)cccc4C(C)(O)C3C(O)C12` (centres undefined), the survivor count (dose: 175.0 mg/kg/injection, schedule: Q02DX006 (ip), vehicle: water) is reported as 3 of 10.

`Nc1nc(F)nc2c1ncn2C1OC(CO)C(O)C1O` (centres undefined) was tested, and the survivor count (dose: 3.0 mg/kg/injection, schedule: Q01DX011 (ip), vehicle: carboxymethylcellulose (CMC)) was 1 of 10.

For `CN(C)c1ncnc2c1ncn2C1OC(CO)C(N)C1O` (centres undefined), the survivor count [1] was 5 of 10.

With `CNC=O` the T/C [2] was 141 % of control and the T/C [3] was 129 % of control.

`c1cn[nH]c1` was tested, and the T/C (dose: 16.0 mg/kg/injection, schedule: Q01DX006 (iv), vehicle: saline) was 133 % of control and the survivor count (dose: 100.0 mg/kg/injection, schedule: Q01DX011 (oral), vehicle: saline) was 3 of 10.

`N=[N+]=CC(=O)OCC(N)C(=O)O` (centres undefined) was tested, and the survivor count (dose: 4.0 mg/kg/injection, schedule: Q01DX011 (ip), vehicle: saline) was 6 of 10, the survivor count (dose: 6.0 mg/kg/injection, schedule: Q01DX011 (ip), vehicle: saline) was 5 of 10 and the survivor count (dose: 8.0 mg/kg/injection, schedule: Q01DX011 (ip), vehicle: saline) was 5 of 10.

For `O=C(O)C(=O)CF`, the survivor count [3] was 0 of 10.

With `CCCCNc1nc(N)nc2nc[nH]c12` the survivor count [4] was 0 of 10.

`CC(=O)OCC(=O)[C@@]1(O)CC[C@H]2[C@@H]3CCC4=CC(=O)CC[C@]4(C)[C@H]3C(=O)C[C@@]21C` was tested, and the survivor count (dose: 75.0 mg/kg/injection, schedule: Q01DX011 (sc), vehicle: saline) was 4 of 10, the survivor count (dose: 125.0 mg/kg/injection, schedule: Q01DX011 (sc), vehicle: saline) was 5 of 10 and the survivor count (dose: 150.0 mg/kg/injection, schedule: Q01DX011 (sc), vehicle: saline) was 4 of 10.

For `CNc1ncnc2c1cnn2C`, the survivor count [1] was 6 of 10 and the survivor count (dose: 80.0 mg/kg/injection, schedule: Q01DX011 (ip), vehicle: saline) was 0 of 10.

`Nc1nncc2[nH]cnc12` was tested, and the survivor count [5] was 3 of 10 and the survivor count (dose: 75.0 mg/kg/injection, schedule: Q01DX011 (ip), vehicle: carboxymethylcellulose (CMC)) was 0 of 10.

With `Oc1ccc2ccccc2c1N=Nc1ccc(F)cc1` the survivor count [3] was 5 of 10, the survivor count [6] was 1 of 10 and the survivor count (dose: 600.0 mg/kg/injection, schedule: Q01DX011 (ip), vehicle: saline) was 5 of 10.

`NCC(=O)NC1(C(=O)O)CCCC1` (H-Gly-[Ac5c]-OH) was tested, and the survivor count [6] was 0 of 10.

In the case of `Cc1ccc(N2CCN(CCCN3CCN(c4ccc(Cl)cc4)CC3)CC2)cc1`, the survivor count (dose: 100.0 mg/kg/injection, schedule: Q01DX011 (ip), vehicle: carboxymethylcellulose (CMC)) is reported as 4 of 10.

With `CCCCOC(=O)C1(N)CCCC1` the survivor count (dose: 112.0 mg/kg/injection, schedule: Q01DX011 (ip), vehicle: saline) was 6 of 12.

`Cc1c2ccccc2c(C)c2c1ccc1ccccc12` was tested, and the survivor count (dose: 38.0 mg/kg/injection, schedule: Q01DX011 (ip), vehicle: saline) was 1 of 10 and the survivor count (dose: 76.0 mg/kg/injection, schedule: Q01DX011 (ip), vehicle: saline) was 0 of 10.

`O=C(O)CCCc1ccc(N(CCCl)CCCl)cc1` was tested, and the survivor count (dose: 2.0 mg/kg/injection, schedule: Q01DX011 (ip), vehicle: saline) was 5 of 10.

For `O=c1[nH]cc(F)c(=O)[nH]1`, the survivor count (dose: 30.0 mg/kg/injection, schedule: Q01DX011 (ip), vehicle: carboxymethylcellulose (CMC)) was 0 of 10 and the survivor count (dose: 40.0 mg/kg/injection, schedule: Q01DX011 (ip), vehicle: carboxymethylcellulose (CMC)) was 0 of 10.

For `Cn1c(N)nc2nc[nH]c2c1=S`, the T/C (dose: 8.0 mg/kg/injection, schedule: Q01DX008 (iv), vehicle: saline) was 146 % of control, the T/C (dose: 16.0 mg/kg/injection, schedule: Q01DX008 (iv), vehicle: saline) was 146 % of control and the survivor count (dose: 128.0 mg/kg/injection, schedule: Q01DX008 (iv), vehicle: saline) was 5 of 10. The survivor count (dose: 256.0 mg/kg/injection, schedule: Q01DX008 (iv), vehicle: saline) was 0 of 10.

In the case of `OCC1OC(n2cnc3c(=S)nc[nH]c32)C(O)C1O` (centres undefined), the survivor count [7] is reported as 5 of 10, the survivor count (dose: 120.0 mg/kg/injection, schedule: Q01DX011 (oral), vehicle: alkali diluted with saline) is reported as 2 of 10 and the survivor count (dose: 125.0 mg/kg/injection, schedule: Q01DX011 (ip), vehicle: carboxymethylcellulose (CMC)) is reported as 0 of 10. For the same molecule, the survivor count [4] was 0 of 10 and the survivor count (dose: 960.0 mg/kg/injection, schedule: Q01DX001 (oral), vehicle: alkali diluted with saline) was 3 of 10.

In the case of `S=c1nc[nH]c2nc[nH]c12`, the T/C (dose: 0.5 mg/kg/injection, schedule: Q01DX011 (ip), vehicle: carboxymethylcellulose (CMC)) is reported as 40, 41, 47 [9 of 10 alive], 52, 60, 77 % of control, the T/C (dose: 1.0 mg/kg/injection, schedule: Q01DX011 (ip), vehicle: carboxymethylcellulose (CMC)) is reported as 10 [8 of 10 alive], 15 (2×), 19, 24, 32 % of control and the T/C (dose: 2.0 mg/kg/injection, schedule: Q01DX011 (ip), vehicle: carboxymethylcellulose (CMC)) is reported as 2, 3, 4, 16, 17, 25 % of control. The T/C (dose: 10.0 mg/kg/injection, schedule: Q01DX011 (ip), vehicle: saline) was 4, 5, 7, 7 % of control [9 of 10 alive], the survivor count (dose: 20.0 mg/kg/injection, schedule: Q01DX011 (ip), vehicle: carboxymethylcellulose (CMC)) was 3 of 10 and the T/C [8] was 1 [7 of 10 alive], 1 [9 of 10 alive], 2, 3 % of control [9 of 10 alive]. For the same molecule, the survivor count [8] was 6 of 10, the survivor count [5] was 0 of 10 and the survivor count [7] was 5 of 10. For the same molecule, the survivor count (dose: 160.0 mg/kg/injection, schedule: Q01DX011 (oral), vehicle: alkali diluted with saline) was 2 of 10, the survivor count (dose: 640.0 mg/kg/injection, schedule: Q03DX004 (oral), vehicle: alkali diluted with saline) was 4 of 10 and the survivor count (dose: 960.0 mg/kg/injection, schedule: Q07DX002 (oral), vehicle: alkali diluted with saline) was 3 of 10.

For `Cc1ncc(CO)c(C)c1O`, the T/C (dose: 50.0 mg/kg/injection, schedule: Q01DX011 (ip), vehicle: saline) was 127 % of control, the T/C [2] was 129 % of control and the T/C [3] was 134 % of control.

`CCCCn1cnc2c(SSc3ncnc4c3ncn4CCCC)ncnc21` was tested, and the survivor count (dose: 60.0 mg/kg/injection, schedule: Q01DX011 (ip), vehicle: saline) was 5 of 10, the survivor count (dose: 120.0 mg/kg/injection, schedule: Q01DX011 (ip), vehicle: saline) was 0 of 10 and the survivor count (dose: 240.0 mg/kg/injection, schedule: Q01DX011 (ip), vehicle: saline) was 0 of 10.

`O=[N+]([O-])c1ccc(CSc2ncnc3nc[nH]c23)cc1` was tested, and the survivor count [6] was 6 of 10.

`O=CNC(Cc1ccc(N(CCCl)CCCl)cc1)C(=O)O` (centres undefined) was tested, and the survivor count (dose: 160.0 mg/kg/injection, schedule: Q01DX011 (ip), vehicle: carboxymethylcellulose (CMC)) was 0 of 10 and the survivor count (dose: 320.0 mg/kg/injection, schedule: Q01DX011 (ip), vehicle: carboxymethylcellulose (CMC)) was 0 of 10.

In the case of `O=C(O)c1[nH]c(=O)[nH]c(=O)c1Br`, the T/C [8] is reported as 139 % of control, the T/C (dose: 30.0 mg/kg/injection, schedule: Q01DX011 (ip), vehicle: saline) is reported as 132 % of control and the T/C [1] is reported as 130 % of control.
